Results are given in words; binding and its absence hold for the method and conditions named.
Target: Human recombinant FGF8b (fibroblast growth factor-8b) (human)
Assay: SPR; BIAcore X-100; FGF8b (20 μg/ml in 10 mM sodium acetate, pH 6.0) or other FGFs (10 mM sodium acetate at optimal pH) immobilised on a CM5 sensor chip by EDC/NHS; peptide injected (ARPCA 8 μM to 2000 μM), 4 min at 30 μl/min, 10 min dissociation, in HBS; equilibrium values fitted with the Langmuir equation for monovalent binding; both purified

APCRA (N-terminal acetyl; C-terminal amide) [Ac-APCRA-NH2, partially scrambled peptide]
binding: no binding

Reference: publication PMC4537050, “A long pentraxin-3-derived pentapeptide for the therapy of FGF8b-driven steroid hormone-regulated cancers” (Oncotarget, 2015)
